The source of these data is patent publication US4600788A, “4'-flavonecarboxylic acids and pharmaceutically acceptable derivatives their preparation, and their application” (Societe Cortial, S.A., priority 1983, dated 1986).

The series relates to rats. Briefly: Neuropathy with streptozotocin: sorbitol and inositol levels in sciatic nerves, glycemia. The note with it: 100 mg/kg/d. The series is classed as in vivo. The protocol: Four batches of 10 rats weighing about 200 g were treated from D-2 to D+3 with a gummy julep of the product to be tested. On D O the animals received an i.p. injection of 100 mg/kg of streptozotocin dissolved in a citrate buffer. The glycemia of the rats was determined 24 hours and 3 days after injection of the streptozotocin and the sciatic nerves were removed to determine the sorbitol and inositol levels. […] COR 35 01 had no effect on the glycemia of the animals.

Structures are written as SMILES.

Turning to `CCCc1c(-c2ccc(C(=O)O)cc2)oc2cc(NS(C)(=O)=O)ccc2c1=O` [COR 35 01, 7-methanesulfonamido-3-propyl-4'-flavonecarboxylic acid], the “effect on the glycemia of the animals” value was “no effect”. In addition, the “glycemia (D1)” value (D1, control 4.03±0.89) was 4.07±1.03. The “glycemia (D2)” value (D2, control 5.44±0.90) was 6.30 ± 0.97.
